Results are given in words; binding and its absence hold for the method and conditions named. Binding calls can cover weak binding; strength is not graded here.
Target: TGFβ
Assay: ELISA, fragment coated at 10 µg/ml, bound TGFβ detected with anti-TGFβ antibody

binding: binds
B1: CTGF fragment encoded by exon 3 (protein)
chain: AKDGAPCIFGGTVYRSGESFQSSCKYQCTCLDGAVGCMPLCSMDVRLPSPDCPFPRRVKLPGKCCEEWVCDEPKDQTVVGPALA

Reference: patent US20040248206A1 (FIBROGEN, published 2004)
